Measured data: PubChem BioAssay AID1259425 (University of Nebraska Medical Center, 2018)

- Test: 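Find knockdowns that reproduce the gene expression pattern seen when KSR1 is lost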 (primary screen)
- System: HCT116 human colon cancer cells
- Knock-down reagent: siRNA pool against human genes, 50 nM siRNA
- Read-out: 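mRNA of six signature genes measured together by branched-DNA assay after 50 nM siRNA pool, blank removed, divided by geometric mean of two housekeeping genes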
- Scale: BNIP3L mRNA: higher = more BNIP3L transcript after knockdown; NDRG1 mRNA: higher = more NDRG1 transcript after knockdown
In all, the deposit lists about 14,000 reagents; below is a part drawn at random. Further read-outs or replicates are left out here. The record does not give: the time to read-out.

Gene	BNIP3L mRNA, set 1	NDRG1 mRNA, set 1
PDCD1	0.233	0.527
HOXD13	0.142	0.163
ARF1	0.197	0.215
SEPTIN9	0.139	0.214
ZNF592	0.141	0.29
LTA4H	0.109	0.0994
IPCEF1	0.103	0.181
ARHGAP25	0.0459	0.167
TMEM167B	0.183	0.663
PFKFB1	0.066	0.328
PRAME	0.0543	0.235
SDHD	0.0805	0.201
SNRNP35	0.0859	0.191
APOLD1	0.0362	0.334
USP29	0.0749	0.133
NCOA6	0.0423	0.136

Limited to “NDRG1 mRNA, set 1”, for 5 of the entries above:
SDHD: 0.201
SNRNP35: 0.191
APOLD1: 0.334
USP29: 0.133
NCOA6: 0.136

The list goes on:
Gene	BNIP3L mRNA, set 1	NDRG1 mRNA, set 1
CLCA3P	0.11	0.124
FGB	0.0767	0.233
UXS1	0.0673	0.327
LOXL2	0.0931	0.365
SLC52A1	0.196	0.337
HSPB1	0.0614	0.117
RTKN	0.137	0.217
CCDC102B	0.129	0.517
ABCC1	0.0853	0.22
GLRA3	0.0823	0.101
PIGB	0.227	0.148
PDIA6	0.143	0.173
MOGAT2	0.0827	0.164
OPRM1	0.26	0.231
ENTR1	0.108	0.499
MAPK1	0.0559	0.113
PCDHGB5	0.119	0.159
FLAD1	0.106	0.309
